PubChem BioAssay AID504774 – Drosophila RNAi Screening Center | 2011
Test: 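Knock-downs that shift viability of MMS-exposed cells relative to untreated ones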 (primary screen). System: Drosophila Kc167 cells. Reagent: long dsRNA against Drosophila genes, about 0.25 µg dsRNA per well. Time to read-out: about 6 days: 3 days knock-down, then 3 days with or without MMS. Treatment: methyl methanesulphonate 0.004% (w/v) for 3 days after knock-down. Detection: 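Viability in wells given MMS, read as ATP luminescence, normalised by quantiles plate by plate and averaged across replicates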. Direction: mean viability with MMS and viability with MMS: higher = more surviving cells after MMS.
The deposit covers about 23,000 reagents; this is a random part of those with a known target gene and a result. 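Values are quantile-normalised luminescence on an arbitrary scale; higher means more cells surviving MMS.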 No sequences are given here.

| Gene | dsRNA | mean viability with MMS | viability with MMS, replicate 1 | viability with MMS, replicate 2 |
| --- | --- | --- | --- | --- |
| Flacc | DRSC20040 | 3.76e6 | 4.39e6 | 4.17e6 |
| SCCRO3 | DRSC06359 | 3.45e6 | 3.70e6 | 4.07e6 |
| CG13086 | DRSC02190 | 3.42e6 | 3.89e6 | 3.81e6 |
| CG11192 | DRSC06057 | 3.37e6 | 3.82e6 | 3.77e6 |
| Ufc1 | DRSC07156 | 3.59e6 | 4.09e6 | 4.07e6 |
| alpha-Man-Ib | DRSC14418 | 3.45e6 | 3.97e6 | 3.87e6 |
| CG32512 | DRSC20519 | 3.53e6 | 3.91e6 | 4.11e6 |
| CG32512 | DRSC20551 | 3.41e6 | 3.85e6 | 3.87e6 |
| CG32512 | DRSC21401 | 3.55e6 | 4.06e6 | 4.00e6 |
| CG12768 | DRSC11680 | 3.29e6 | 3.64e6 | 3.80e6 |
| CG12768 | DRSC23215 | 3.74e6 | 4.30e6 | 4.18e6 |
| CG15394 | DRSC00408 | 3.41e6 | 3.82e6 | 3.86e6 |
| CG11664 | DRSC18650 | 3.62e6 | 4.17e6 | 4.04e6 |
| CG3581 | DRSC15499 | 3.59e6 | 4.08e6 | 4.07e6 |
| CG9759 | DRSC16558 | 3.36e6 | 3.91e6 | 3.67e6 |
| NT5E-2 | DRSC06893 | 3.59e6 | 4.18e6 | 3.97e6 |
| CG3793 | DRSC01982 | 3.61e6 | 4.02e6 | 4.20e6 |
| vanin-like | DRSC17440 | 3.51e6 | 4.01e6 | 3.97e6 |
| CG8064 | DRSC16373 | 3.36e6 | 3.71e6 | 3.93e6 |
| Trp1 | DRSC03465 | 3.42e6 | 3.83e6 | 3.90e6 |
| CycC | DRSC16619 | 3.53e6 | 3.98e6 | 4.03e6 |
| RpL36 | DRSC18708 | 2.97e6 | 3.66e6 | 3.66e6 |
| c11.1 | DRSC18749 | 3.47e6 | 3.92e6 | 3.94e6 |
| b | DRSC03487 | 3.56e6 | 3.97e6 | 4.10e6 |
| org-1 | DRSC18810 | 3.15e6 | 3.66e6 | 3.52e6 |
| org-1 | DRSC22974 | 2.89e6 | 3.36e6 | 2.96e6 |
| Cpr49Ab | DRSC05341 | 3.55e6 | 4.04e6 | 4.00e6 |
| CG11085 | DRSC19374 | 3.59e6 | 4.01e6 | 4.11e6 |
| CG11085 | DRSC22832 | 3.51e6 | 4.26e6 | 3.73e6 |

Entries above whose gene name begins with O or o (2):
| Gene | dsRNA | mean viability with MMS | viability with MMS, replicate 1 | viability with MMS, replicate 2 |
| --- | --- | --- | --- | --- |
| org-1 | DRSC18810 | 3.15e6 | 3.66e6 | 3.52e6 |
| org-1 | DRSC22974 | 2.89e6 | 3.36e6 | 2.96e6 |
